Assay results as given in PMC3492271.
Results are given in words; binding and its absence hold for the method and conditions named. Binding seen in cells or lysates may run through a third protein. Some entries that bind do so weakly or less than the wild type.

Protein sequences, listed by entry. Tags and fused reporters are not part of them.
UniProt O60934: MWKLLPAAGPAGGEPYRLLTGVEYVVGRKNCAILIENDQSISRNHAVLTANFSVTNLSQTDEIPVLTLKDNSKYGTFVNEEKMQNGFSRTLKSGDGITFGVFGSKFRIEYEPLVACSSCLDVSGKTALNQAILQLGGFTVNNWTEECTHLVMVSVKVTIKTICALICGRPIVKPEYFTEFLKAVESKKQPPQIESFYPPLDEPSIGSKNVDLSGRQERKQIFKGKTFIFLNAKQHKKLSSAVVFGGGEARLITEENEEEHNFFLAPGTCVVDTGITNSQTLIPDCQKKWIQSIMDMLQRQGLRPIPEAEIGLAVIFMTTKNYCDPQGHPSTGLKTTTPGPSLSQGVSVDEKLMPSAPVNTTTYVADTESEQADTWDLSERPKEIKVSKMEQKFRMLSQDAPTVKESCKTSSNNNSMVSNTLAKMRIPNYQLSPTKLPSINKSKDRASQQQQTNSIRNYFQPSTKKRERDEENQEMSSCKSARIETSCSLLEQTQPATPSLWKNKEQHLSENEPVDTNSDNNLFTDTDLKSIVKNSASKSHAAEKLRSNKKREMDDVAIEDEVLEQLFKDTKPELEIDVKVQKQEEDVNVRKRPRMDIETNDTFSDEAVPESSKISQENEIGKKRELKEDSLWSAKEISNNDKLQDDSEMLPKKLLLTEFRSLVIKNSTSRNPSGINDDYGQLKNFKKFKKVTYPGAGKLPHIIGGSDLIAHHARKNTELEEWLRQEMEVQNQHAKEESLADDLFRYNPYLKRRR
UniProt P12956: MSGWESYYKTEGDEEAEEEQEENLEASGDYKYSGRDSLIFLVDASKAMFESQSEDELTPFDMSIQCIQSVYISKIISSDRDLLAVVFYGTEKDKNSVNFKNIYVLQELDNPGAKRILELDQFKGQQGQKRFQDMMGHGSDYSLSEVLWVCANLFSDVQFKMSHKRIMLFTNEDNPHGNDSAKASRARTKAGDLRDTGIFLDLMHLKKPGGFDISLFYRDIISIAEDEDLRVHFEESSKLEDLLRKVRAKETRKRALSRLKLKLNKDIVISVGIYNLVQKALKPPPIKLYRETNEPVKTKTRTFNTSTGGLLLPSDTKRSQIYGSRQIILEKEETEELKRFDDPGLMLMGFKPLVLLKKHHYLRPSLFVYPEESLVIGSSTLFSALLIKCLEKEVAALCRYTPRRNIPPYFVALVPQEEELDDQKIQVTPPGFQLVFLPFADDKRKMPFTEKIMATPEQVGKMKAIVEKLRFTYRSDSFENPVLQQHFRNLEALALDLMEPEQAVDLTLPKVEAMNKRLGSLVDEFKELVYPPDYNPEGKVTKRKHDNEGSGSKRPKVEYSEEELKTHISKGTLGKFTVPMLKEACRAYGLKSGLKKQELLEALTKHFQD
UniProt P15927: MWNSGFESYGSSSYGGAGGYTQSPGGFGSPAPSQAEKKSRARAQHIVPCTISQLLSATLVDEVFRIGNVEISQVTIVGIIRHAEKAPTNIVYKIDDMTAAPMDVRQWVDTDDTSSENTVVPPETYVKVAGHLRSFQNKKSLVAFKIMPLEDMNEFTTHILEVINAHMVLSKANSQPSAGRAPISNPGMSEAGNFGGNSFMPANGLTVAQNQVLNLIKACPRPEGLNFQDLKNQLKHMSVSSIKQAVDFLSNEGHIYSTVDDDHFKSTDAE

What was measured:
[1] = target: nucleolin (endogenous, normal lymphoblastoid cells) (human (endogenous in normal lymphoblastoid cells)) (UniProt P19338); experiment: co-IP; endogenous proteins; extracts from normal lymphoblastoid cells with or without IR; immunoprecipitation with an antibody to the target or normal rabbit IgG; Western blot
[2] = target: GST-fused human H2AX (wild type) (human) (UniProt P16104); experiment: pull-down; purified GST-fused histone as bait; nuclear extract of irradiated or un-irradiated HeLa cells; Western blot; only the target purified

| binding [1] | binding [2] | Substance |
| --- | --- | --- |
| binds |  | NBS1 (endogenous, normal lymphoblastoid cells) (from UniProt O60934 1-754) |
| binds |  | KU70 (endogenous) (from UniProt P12956 1-609) |
|  | no binding | NBS1 (endogenous, HeLa nuclear extract) (from UniProt O60934 1-754) |
| binds |  | RPA34 (endogenous) (from UniProt P15927 1-270) |
